In paper PMC9170289:
Where two headings read alike, the source gives them in different places. These are yes or no findings as the source states them, for the method shown. Some entries that bind do so weakly or less than the wild type.

Chains of the proteins cited; added tags and fusions are not shown.
UniProt P22147: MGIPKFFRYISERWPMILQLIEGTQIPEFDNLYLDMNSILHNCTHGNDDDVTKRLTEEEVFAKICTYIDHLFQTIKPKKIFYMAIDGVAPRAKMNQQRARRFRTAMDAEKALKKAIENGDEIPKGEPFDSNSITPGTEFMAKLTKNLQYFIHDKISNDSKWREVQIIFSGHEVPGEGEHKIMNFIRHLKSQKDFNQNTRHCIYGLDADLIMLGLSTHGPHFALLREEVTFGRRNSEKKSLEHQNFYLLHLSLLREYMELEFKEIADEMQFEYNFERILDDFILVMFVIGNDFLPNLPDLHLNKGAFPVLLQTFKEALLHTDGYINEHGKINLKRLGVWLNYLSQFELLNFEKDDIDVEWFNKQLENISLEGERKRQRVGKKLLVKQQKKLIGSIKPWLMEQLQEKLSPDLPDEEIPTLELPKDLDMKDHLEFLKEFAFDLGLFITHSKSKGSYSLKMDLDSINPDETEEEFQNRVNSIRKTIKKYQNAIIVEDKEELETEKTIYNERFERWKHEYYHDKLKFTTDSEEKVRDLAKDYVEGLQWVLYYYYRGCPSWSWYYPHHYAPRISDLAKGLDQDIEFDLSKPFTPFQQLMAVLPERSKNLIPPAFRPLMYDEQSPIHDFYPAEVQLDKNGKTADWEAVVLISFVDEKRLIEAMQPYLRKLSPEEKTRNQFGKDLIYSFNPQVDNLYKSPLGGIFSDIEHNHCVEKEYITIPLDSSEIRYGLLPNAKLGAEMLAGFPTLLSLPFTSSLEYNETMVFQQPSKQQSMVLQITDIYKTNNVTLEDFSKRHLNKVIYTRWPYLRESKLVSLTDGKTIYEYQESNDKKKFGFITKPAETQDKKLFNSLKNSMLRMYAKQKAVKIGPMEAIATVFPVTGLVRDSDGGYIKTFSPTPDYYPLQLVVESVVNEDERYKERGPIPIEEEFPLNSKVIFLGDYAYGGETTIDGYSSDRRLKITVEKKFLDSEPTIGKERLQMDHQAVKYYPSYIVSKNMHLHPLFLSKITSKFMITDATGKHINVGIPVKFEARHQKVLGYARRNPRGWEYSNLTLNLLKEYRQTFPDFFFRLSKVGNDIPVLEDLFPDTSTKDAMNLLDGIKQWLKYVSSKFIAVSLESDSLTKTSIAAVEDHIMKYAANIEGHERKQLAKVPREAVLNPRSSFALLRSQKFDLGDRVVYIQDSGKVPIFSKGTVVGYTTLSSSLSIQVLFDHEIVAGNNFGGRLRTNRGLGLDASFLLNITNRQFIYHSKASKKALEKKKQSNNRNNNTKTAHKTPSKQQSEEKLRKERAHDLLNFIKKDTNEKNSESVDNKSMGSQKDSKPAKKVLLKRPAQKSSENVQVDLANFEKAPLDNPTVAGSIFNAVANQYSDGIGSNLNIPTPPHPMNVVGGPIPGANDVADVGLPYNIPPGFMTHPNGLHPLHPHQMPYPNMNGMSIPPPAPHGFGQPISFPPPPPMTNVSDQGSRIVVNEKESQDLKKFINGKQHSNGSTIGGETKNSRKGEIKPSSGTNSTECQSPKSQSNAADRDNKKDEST

T1: Dcp2 fragment ND315 (S. cerevisiae) (UniProt P53550)
T1 sequence: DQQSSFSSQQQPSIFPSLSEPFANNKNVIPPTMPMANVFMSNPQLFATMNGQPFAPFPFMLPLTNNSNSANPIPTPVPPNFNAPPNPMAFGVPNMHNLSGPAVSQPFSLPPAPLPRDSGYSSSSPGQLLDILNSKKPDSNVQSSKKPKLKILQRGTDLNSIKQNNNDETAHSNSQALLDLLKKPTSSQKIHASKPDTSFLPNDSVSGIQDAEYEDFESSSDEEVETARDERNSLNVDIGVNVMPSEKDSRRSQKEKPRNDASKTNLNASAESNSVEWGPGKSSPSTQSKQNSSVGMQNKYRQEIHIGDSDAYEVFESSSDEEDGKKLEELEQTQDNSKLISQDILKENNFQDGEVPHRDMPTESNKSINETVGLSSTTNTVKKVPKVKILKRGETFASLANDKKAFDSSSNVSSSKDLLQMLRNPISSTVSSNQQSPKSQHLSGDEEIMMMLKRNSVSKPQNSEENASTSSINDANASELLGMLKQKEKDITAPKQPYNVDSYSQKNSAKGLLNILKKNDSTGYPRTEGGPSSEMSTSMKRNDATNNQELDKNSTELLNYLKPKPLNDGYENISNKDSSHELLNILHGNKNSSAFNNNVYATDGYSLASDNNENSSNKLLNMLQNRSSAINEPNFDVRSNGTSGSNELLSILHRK

T2: Pat1 (S. cerevisiae) (UniProt P25644)
T2 sequence: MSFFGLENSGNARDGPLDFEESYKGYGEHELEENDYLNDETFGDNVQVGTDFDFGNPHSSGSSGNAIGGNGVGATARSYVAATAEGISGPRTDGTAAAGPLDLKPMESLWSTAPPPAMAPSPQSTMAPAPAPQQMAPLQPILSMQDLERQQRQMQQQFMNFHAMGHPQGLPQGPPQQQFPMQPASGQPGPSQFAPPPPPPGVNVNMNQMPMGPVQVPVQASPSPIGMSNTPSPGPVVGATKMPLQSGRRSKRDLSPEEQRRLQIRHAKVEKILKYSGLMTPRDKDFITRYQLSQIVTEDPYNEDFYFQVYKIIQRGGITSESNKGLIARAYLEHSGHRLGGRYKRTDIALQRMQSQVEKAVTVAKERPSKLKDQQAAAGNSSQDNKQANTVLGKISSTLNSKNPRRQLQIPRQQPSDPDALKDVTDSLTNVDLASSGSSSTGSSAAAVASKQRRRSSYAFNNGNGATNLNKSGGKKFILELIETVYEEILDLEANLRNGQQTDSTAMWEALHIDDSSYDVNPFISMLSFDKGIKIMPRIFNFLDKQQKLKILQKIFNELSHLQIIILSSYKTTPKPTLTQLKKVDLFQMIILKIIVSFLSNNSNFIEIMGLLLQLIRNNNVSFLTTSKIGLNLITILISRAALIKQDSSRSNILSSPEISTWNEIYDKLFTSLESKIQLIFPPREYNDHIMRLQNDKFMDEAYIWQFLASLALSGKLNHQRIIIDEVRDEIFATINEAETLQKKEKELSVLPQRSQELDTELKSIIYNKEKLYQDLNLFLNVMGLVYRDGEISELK

T3: Dcp2, wild-type full length (S. cerevisiae) (UniProt P53550)
T3 sequence: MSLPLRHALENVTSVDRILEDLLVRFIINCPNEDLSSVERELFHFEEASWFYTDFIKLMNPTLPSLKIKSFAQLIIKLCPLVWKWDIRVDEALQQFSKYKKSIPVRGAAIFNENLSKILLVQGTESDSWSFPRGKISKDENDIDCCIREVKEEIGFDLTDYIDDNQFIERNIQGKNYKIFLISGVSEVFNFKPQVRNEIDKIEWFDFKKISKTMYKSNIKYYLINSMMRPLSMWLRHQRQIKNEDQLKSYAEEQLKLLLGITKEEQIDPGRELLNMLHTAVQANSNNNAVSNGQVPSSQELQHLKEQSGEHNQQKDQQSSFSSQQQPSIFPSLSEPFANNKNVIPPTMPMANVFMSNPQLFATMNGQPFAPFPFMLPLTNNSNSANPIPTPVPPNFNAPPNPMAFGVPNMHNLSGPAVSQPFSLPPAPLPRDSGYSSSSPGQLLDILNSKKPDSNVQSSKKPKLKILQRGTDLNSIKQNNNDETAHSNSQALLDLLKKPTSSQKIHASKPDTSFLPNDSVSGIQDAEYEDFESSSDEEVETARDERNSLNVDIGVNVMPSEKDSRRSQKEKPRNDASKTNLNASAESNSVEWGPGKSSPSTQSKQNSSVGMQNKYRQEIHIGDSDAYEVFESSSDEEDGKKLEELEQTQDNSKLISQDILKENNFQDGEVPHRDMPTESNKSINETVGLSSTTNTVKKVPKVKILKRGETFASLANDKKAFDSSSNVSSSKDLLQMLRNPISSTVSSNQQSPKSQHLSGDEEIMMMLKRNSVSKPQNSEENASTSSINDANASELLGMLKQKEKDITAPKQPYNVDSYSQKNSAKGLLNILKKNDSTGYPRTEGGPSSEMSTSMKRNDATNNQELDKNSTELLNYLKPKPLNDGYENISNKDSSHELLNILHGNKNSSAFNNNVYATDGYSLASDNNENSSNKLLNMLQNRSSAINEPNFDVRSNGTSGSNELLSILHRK


Tests used:
Test in all cases: two-hybrid; GAL4(DB) fusion and GAL4(AD) fusion cotransformed into the wild-type tester strain GGY1::171; X-Gal colony colour on SSX plates, 30°C; pairs said to be unaffected were also tested in upf1Δ, pat1Δ, scd6Δ, edc3Δ or dcp2-N245 derivatives
[1] = target: T1, Dcp2 fragment ND315 (S. cerevisiae)
[2] = target: T2, Pat1 (S. cerevisiae)
[3] = target: T3, Dcp2, wild-type full length (S. cerevisiae)
[4] = target: T1, Dcp2 fragment ND315 (S. cerevisiae); remark: listed apart in the source
[5] = target: T2, Pat1 (S. cerevisiae); remark: listed apart in the source

binding [1]	binding [2]	binding [3]	binding [4]	binding [5]	Molecule
binds weakly	binds	no binding			Xrn1 (from UniProt P22147 1-1528)
			binds	binds	Scd6 (protein, UniProt P45978 1-349) MSQYIGKTISLISVTDNRYVGLLEDIDSEKGTVTLKEVRCFGTEGRKNWGPEEIYPNPTVYNSVKFNGSEVKDLSILDANINDIQPVVPQMMPPASQFPPQQAQSPPQAQAQAHVQTNPQVPKPESNVPAAVAGYGVYTPTSTETATASMNDKSTPQDTNVNSQSRERGKNGENEPKYQRNKNRSSNRPPQSNRNFKVDIPNEDFDFQSNNAKFTKGDSTDVEKEKELESAVHKQDESDEQFYNKKSSFFDTISTSTETNTNMRWQEEKMLNVDTFGQASARPRFHSRGLGRGRGNYRGNRGNRGRGGQRGNYQNRNNYQNDSGAYQNQNDSYSRPANQFSQPPSNVEF
